# Laboratory results as given in patent US9506077B2, “Synthetic chloroplast transit peptides” (DOW AGROSCIENCES LLC, priority 2012, dated 2016).
# Some entries share one result that the patent states for a list of compounds.
# B1: TraP23: synthetic chloroplast transit peptide, SEQ ID NO:11; encoded by SEQ ID NO:12; tested fused to GFP, dgt-28, dgt-31, cry2Aa (protein)
# chain: MAQINKSANGVRNASLISNFSNTRQAKSPFSLSCGTRLKNSSRGLKKVAVRLIGSRVKVSAS
# modifications: TraP23 synthetic chloroplast transit peptide
# notes: tested fused to GFP, dgt-28, dgt-31, cry2Aa
# Experiments:
# F1 corn = assay: Glyphosate tolerance of F1 single copy dgt-28 corn, greenhouse (Table 18); format: in vivo, Zea mays; conditions: F1/T1 corn
# T1 wheat = assay: Glyphosate resistance of T1 dgt-28 wheat events (Table 28); format: in vivo, wheat line Bobwhite MPB26RH; conditions: T1 dgt-28 wheat plants
molecule,measurement,setting,value
B1,glyphosate rate up to which robust tolerance was shown,F1 corn,up to 4480 g ae/ha
same,glyphosate rate up to which tolerance was achieved,T1 wheat,up to 3360 g ae/ha
